The target in assay [1] is Ataxin-3 (ATXN3), endogenous (human (endogenous in AGS, HEK-293, SH-SY5Y)) (UniProt P54252). Put plainly: co-IP; nuclear extracts (1 mg, benzonase treated) of HEK-293 and SH-SY5Y cells IP'd with anti-PNKP or anti-ATXN3 Ab, IgG as control; Western blot; HEK-293 cells treated with control, PNKP or ATXN3 siRNA.
Assay [2] has as its target polynucleotide kinase 3'-phosphatase (PNKP), endogenous (human (endogenous in AGS, HEK-293, SH-SY5Y)) (UniProt Q96T60). Described as above.
Assay [3] addresses bovine serum albumin (bovine) (UniProt P02769). Briefly: far-Western, overlay or dot blot; far-Western: WT ATXN3 (ln 1), mutant ATXN3 (ln 2) and BSA (ln 3) on the gel, interaction with full-length PNKP; both purified.

The chains behind the UniProt entries cited, without tags or fusion partners. Residues count along the entry.
UniProt P54252: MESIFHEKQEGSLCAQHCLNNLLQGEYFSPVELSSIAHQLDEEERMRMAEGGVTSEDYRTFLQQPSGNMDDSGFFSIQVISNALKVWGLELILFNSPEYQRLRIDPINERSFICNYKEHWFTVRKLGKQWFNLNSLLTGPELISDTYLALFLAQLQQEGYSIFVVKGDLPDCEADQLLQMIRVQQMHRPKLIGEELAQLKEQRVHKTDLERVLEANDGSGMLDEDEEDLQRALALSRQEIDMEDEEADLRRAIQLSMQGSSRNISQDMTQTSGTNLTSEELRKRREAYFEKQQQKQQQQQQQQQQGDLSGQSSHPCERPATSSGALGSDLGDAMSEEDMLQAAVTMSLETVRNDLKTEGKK
UniProt P02769, residues 25-607: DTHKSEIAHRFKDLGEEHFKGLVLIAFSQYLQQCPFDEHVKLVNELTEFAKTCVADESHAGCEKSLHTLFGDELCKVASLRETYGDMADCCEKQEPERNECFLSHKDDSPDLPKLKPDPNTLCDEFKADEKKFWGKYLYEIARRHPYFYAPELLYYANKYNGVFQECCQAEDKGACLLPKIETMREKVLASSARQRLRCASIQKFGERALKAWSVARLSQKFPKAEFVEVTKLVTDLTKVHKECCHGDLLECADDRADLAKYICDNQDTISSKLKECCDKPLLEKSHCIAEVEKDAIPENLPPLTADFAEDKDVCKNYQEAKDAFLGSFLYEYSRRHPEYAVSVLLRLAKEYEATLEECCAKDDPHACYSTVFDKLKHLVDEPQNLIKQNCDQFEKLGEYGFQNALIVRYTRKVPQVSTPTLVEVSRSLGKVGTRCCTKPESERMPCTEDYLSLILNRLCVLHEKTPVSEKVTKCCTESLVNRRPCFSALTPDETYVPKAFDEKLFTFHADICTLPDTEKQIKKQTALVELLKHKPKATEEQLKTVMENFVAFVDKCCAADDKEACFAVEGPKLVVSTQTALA

Results are given in words; binding and its absence hold for the method and conditions named. For part of these data: In cells and extracts the contact can be indirect. Some binding calls cover weakened binding; strength is not graded here.

Consider “polynucleotide kinase 3'-phosphatase (PNKP), endogenous (from UniProt Q96T60 1-521) (enzyme)”, for which the binding entry in assay [1] is listed as “binds”.

For “Ataxin-3 (ATXN3), endogenous (from UniProt P54252 1-361)”, the binding entry in assay [2] is reported as “binds”.

With “purified recombinant full-length PNKP (from UniProt Q96T60 1-521) (enzyme)”, the binding result in assay [3] is “no binding”.

(Values after article PMC4310589.)
